{"sequences": {"note": "Sequences of proteins named here, by UniProt entry; tags and fusion partners are left off. Residues count along the entry.", "UniProt P56726, 33-793": "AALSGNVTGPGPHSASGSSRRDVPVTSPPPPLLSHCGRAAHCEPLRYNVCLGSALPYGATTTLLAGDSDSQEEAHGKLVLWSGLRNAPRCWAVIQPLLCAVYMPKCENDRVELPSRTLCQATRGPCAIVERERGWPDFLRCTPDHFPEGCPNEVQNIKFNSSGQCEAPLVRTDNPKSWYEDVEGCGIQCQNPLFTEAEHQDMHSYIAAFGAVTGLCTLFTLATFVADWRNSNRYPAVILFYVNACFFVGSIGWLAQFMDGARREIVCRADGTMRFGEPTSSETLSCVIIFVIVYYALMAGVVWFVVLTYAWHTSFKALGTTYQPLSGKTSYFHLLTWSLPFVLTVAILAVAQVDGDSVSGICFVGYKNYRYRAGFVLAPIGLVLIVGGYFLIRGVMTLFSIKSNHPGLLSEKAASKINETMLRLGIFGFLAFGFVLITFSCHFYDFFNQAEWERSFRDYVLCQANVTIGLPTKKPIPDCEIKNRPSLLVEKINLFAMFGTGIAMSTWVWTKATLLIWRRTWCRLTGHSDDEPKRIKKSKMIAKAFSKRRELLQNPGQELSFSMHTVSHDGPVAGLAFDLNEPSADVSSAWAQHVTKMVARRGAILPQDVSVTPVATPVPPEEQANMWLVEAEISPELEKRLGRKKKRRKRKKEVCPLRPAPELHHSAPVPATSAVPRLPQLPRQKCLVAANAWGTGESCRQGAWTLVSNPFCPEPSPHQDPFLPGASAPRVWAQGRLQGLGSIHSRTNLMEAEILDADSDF", "UniProt Q99835, 28-787": "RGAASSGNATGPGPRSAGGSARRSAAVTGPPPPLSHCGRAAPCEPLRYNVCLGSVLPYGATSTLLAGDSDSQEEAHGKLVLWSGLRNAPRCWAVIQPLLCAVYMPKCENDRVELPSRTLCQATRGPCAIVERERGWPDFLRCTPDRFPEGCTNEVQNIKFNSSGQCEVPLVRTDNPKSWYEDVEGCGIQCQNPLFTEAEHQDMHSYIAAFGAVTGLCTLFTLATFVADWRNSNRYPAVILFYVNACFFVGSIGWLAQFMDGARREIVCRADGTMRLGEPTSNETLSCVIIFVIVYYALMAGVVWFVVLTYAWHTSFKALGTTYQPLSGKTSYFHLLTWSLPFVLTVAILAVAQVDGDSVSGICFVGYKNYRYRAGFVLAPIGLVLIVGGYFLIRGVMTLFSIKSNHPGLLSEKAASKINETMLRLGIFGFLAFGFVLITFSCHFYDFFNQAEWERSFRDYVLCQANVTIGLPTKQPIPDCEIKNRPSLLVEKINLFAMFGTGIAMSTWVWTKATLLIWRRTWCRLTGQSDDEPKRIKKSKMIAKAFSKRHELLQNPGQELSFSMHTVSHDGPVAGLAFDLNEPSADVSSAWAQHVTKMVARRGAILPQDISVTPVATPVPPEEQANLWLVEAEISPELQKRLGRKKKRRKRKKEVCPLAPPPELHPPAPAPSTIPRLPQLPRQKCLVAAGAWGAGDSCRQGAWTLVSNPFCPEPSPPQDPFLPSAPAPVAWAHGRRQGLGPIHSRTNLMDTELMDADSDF"}, "source": "patent US8957091B2", "about": "“Use of quinolinone derivatives as a research tool” (Centre National de la Recherche Scientifique, priority 2010, dated 2015)", "key": {"Smo2 sites": {"target": "T1, Smo2 sites (Mus musculus, UniProt P56726)", "T1 construct": "host or cells: C3H10T1/2", "assay": "Inhibition of C3H10T1/2 differentiation (alkaline phosphatase activity) induced by compound 1 or compound 6", "format": "cell-based", "description": "(§1) The C3H10T1/2 cells were seeded onto 96-well plates at a density of 5×10^3 cells per well, 24 hours before the addition of the test compounds at a concentration ranging from 10 nM to 10 μM in DMEM culture medium supplemented with 10% of fetal calf serum. The tests were carried out in quadruplicate. The plates were then incubated for 5-6 days at a temperature of 37° C. under an atmosphere of 5% CO2. The cells were then washed in cold phosphate buffer (phosphate buffered saline: PBS) and then lysed by sonication at 4° C. in 50 μl of a solution containing 0.9% of NaCl and 0.2% of Triton X-100.\n(§2) The alkaline phosphatase in the resulting lysates was then measured according to the method described by Pepinsky et al. (Pepinsky et al. 1998). After the addition of […] of reaction buffer (200 mM Tris-HCL; pH 10.5; 0.4 M of 2-amino-2-methylpropanol and 8 mM of MgCl2) and of 50 μl of substrate (4 mM of disodium p-nitrophenyl phosphate), the lysates were incubated at 37° C. for 30-60 min and then the optical density was read at a wavelength of 415 nm."}, "Smo1 sites": {"target": "T2, Smo1 sites (Mus musculus, UniProt P56726)", "T2 construct": "host or cells: C3H10T1/2", "assay": "Inhibition of C3H10T1/2 differentiation (alkaline phosphatase activity) induced by SAG", "format": "cell-based", "conditions": "C3H10T1/2 cells", "description": "as §1, §2"}, "Smo receptor": {"target": "Smo receptor (Homo sapiens, UniProt Q99835)", "conditions": "literature value, Yang et al. 2009; cited from earlier work"}, "[1]": {"tested_on": "C3H10T1/2 mesenchymal stem cells", "assay": "Modulation by forskolin of differentiation stimulated by compound 1 or SAG", "format": "cell-based", "conditions": "alkaline phosphatase activity; for effect of forskolin on the activity of SAG: SAG at 0.3 μM; for effect of forskolin on the response to compound 1: compound 1 at 1 μM"}}, "note": "For at least one compound, name, drawing or mass did not settle the structure. Some entries share one result that the patent states for a list of compounds."}
{"compound": "COc1cc(C(=O)NC(=S)Nc2cccc(NC(=O)c3ccc(-c4ccc(F)cc4)cc3)c2)cc(OC)c1OC", "note": "[MRT-79]", "values": [{"measurement": "Smo2 IC50", "setting": "Smo2 sites; alkaline phosphatase activity induced by compound 1 (1 μM), C3H10T1/2 cells", "result": "0.011 ± 0.0", "unit": "µM"}, {"measurement": "Smo2 Inhibition 10 μM", "setting": "Smo2 sites; antagonist at 10 μM, induced by compound 1 (1 μM), C3H10T1/2 cells", "result": 100}, {"measurement": "times more selective with respect to Smo2 sites", "setting": "Smo2 sites; compound 1 versus SAG stimulation", "result": 12.5, "unit": "times"}, {"measurement": "Smo1 IC50", "setting": "Smo1 sites; alkaline phosphatase activity induced by SAG (0.1 μM)", "result": "0.14 ± 0.06", "unit": "µM"}, {"measurement": "Smo1 Inhibition 10 μM", "setting": "Smo1 sites; antagonist at 10 μM, induced by SAG (0.1 μM)", "result": 95}]}
{"compound": "CCCNC1CCC(N(Cc2cccc(-c3ccncc3)c2)C(=O)c2sc3ccccc3c2Cl)CC1", "note": "(stereo not drawn) [SANT75]", "values": [{"measurement": "IC50", "setting": "Smo receptor", "result": "20 to 70", "unit": "nM"}]}
{"compound": "COc1cccc(CN(C(=O)CC(C)(C)C)[C@H]2C[C@@H](C(=O)N3CCNCC3)N(Cc3ccc4c(c3)OCO4)C2)c1", "note": "[Cur61414]", "values": [{"measurement": "IC50", "setting": "Smo2 sites; read-out: IC50 for compounds 1 and 6, responses induced by compounds 1 and 6, one range for both", "result": "2 to 10", "unit": "µM"}]}
{"compound": "C=CCN[C@H]1CC[C@H](N(Cc2cccc(-c3ccncc3)c2)C(=O)c2sc3ccccc3c2Cl)CC1", "note": "[SANT74]", "values": [{"measurement": "IC50", "setting": "Smo receptor", "result": "20 to 70", "unit": "nM"}]}
{"compound": "C=C[C@@]1(C)CC(=O)[C@]2(O)[C@@]3(C)[C@@H](O)CCC(C)(C)[C@@H]3[C@H](O)[C@H](OC(C)=O)[C@@]2(C)O1", "note": "[forskolin]", "values": [{"measurement": "effect of forskolin on the activity of SAG", "setting": "[1]", "result": "inhibits"}, {"measurement": "effect of forskolin on the activity of SAG", "setting": "[1]; listed as Forskolin", "result": "decreases"}, {"measurement": "effect of forskolin on the response to compound 1", "setting": "[1]", "result": "potentiating effect"}, {"measurement": "effect of forskolin on the response to compound 1", "setting": "[1]; listed as Forskolin", "result": "potentiates"}]}
